These are yes or no findings as the source states them, for the method shown. In cells and extracts the contact can be indirect. Some binding calls cover weakened binding; strength is not graded here.
T1: Isoform 1 of zinc finger CCCH domain–containing protein 14 (mouse (endogenous in Ht22)) (UniProt Q8BJ05)
T1 sequence: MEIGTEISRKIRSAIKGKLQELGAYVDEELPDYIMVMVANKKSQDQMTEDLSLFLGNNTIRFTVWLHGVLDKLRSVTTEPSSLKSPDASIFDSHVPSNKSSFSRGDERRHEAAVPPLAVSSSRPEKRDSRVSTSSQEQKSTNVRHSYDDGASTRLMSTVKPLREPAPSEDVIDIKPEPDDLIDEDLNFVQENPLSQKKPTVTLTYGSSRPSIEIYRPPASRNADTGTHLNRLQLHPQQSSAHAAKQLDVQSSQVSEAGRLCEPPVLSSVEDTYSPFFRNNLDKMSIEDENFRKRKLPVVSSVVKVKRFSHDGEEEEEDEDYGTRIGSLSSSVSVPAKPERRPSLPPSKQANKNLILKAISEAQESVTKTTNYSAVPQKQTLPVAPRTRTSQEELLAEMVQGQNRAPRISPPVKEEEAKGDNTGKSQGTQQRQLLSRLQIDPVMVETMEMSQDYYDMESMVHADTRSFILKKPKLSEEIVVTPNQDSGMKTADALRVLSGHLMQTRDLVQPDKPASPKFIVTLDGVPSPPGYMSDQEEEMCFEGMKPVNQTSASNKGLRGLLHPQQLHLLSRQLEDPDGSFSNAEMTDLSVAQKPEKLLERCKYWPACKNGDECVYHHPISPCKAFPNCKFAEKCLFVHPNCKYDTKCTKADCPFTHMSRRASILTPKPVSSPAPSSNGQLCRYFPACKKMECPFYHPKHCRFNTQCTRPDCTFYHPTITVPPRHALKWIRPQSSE

Chains of the proteins cited; added tags and fusions are not shown.
UniProt P26450: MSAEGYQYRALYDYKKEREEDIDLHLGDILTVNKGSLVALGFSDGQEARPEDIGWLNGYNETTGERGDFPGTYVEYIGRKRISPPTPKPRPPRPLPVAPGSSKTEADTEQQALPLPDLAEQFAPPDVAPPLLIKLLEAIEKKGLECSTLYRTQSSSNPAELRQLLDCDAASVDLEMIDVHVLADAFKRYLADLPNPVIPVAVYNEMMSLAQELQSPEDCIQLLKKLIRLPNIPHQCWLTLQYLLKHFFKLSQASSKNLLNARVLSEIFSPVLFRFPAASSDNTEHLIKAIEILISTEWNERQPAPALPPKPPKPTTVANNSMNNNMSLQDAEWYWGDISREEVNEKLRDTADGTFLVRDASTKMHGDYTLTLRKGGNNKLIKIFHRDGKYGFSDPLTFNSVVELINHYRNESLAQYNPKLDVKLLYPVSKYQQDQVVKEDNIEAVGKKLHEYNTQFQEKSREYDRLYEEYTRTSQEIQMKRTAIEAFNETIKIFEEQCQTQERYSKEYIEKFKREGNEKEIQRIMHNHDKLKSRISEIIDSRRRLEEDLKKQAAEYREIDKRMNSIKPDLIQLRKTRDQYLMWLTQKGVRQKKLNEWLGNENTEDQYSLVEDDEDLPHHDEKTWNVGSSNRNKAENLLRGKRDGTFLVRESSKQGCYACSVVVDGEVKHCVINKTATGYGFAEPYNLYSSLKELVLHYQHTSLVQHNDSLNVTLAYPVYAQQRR


Columns and labels:
[1] = target: T1, Isoform 1 of zinc finger CCCH domain–containing protein 14 (mouse (endogenous in Ht22)); assay: co-IP; reverse: ZC3H14 isoform 1 captured with ab169061 (Abcam) from Ht22 lysates, blot for PI3K p85
[2] = target: Phosphatidylinositol 3-kinase (PI3K) regulatory subunit alpha (mouse (endogenous in Ht22)) (UniProt P26450); assay: co-IP; PI3K p85 captured with CST 4257 from Ht22 lysates, blot for ZC3H14; same protocol as the interactome IP; also after 20 ng/ml PDGFbb or vehicle (more ZC3H14 eluted with PDGFbb)

Row | Molecule | binding [1] | binding [2]
1 | Phosphatidylinositol 3-kinase (PI3K) regulatory subunit alpha (from UniProt P26450 1-724) | binds | –
2 | Isoform 1 of zinc finger CCCH domain–containing protein 14 (protein, UniProt Q8BJ05 1-735) MEIGTEISRKIRSAIKGKLQELGAYVDEELPDYIMVMVANKKSQDQMTEDLSLFLGNNTIRFTVWLHGVLDKLRSVTTEPSSLKSPDASIFDSHVPSNKSSFSRGDERRHEAAVPPLAVSSSRPEKRDSRVSTSSQEQKSTNVRHSYDDGASTRLMSTVKPLREPAPSEDVIDIKPEPDDLIDEDLNFVQENPLSQKKPTVTLTYGSSRPSIEIYRPPASRNADTGTHLNRLQLHPQQSSAHAAKQLDVQSSQVSEAGRLCEPPVLSSVEDTYSPFFRNNLDKMSIEDENFRKRKLPVVSSVVKVKRFSHDGEEEEEDEDYGTRIGSLSSSVSVPAKPERRPSLPPSKQANKNLILKAISEAQESVTKTTNYSAVPQKQTLPVAPRTRTSQEELLAEMVQGQNRAPRISPPVKEEEAKGDNTGKSQGTQQRQLLSRLQIDPVMVETMEMSQDYYDMESMVHADTRSFILKKPKLSEEIVVTPNQDSGMKTADALRVLSGHLMQTRDLVQPDKPASPKFIVTLDGVPSPPGYMSDQEEEMCFEGMKPVNQTSASNKGLRGLLHPQQLHLLSRQLEDPDGSFSNAEMTDLSVAQKPEKLLERCKYWPACKNGDECVYHHPISPCKAFPNCKFAEKCLFVHPNCKYDTKCTKADCPFTHMSRRASILTPKPVSSPAPSSNGQLCRYFPACKKMECPFYHPKHCRFNTQCTRPDCTFYHPTITVPPRHALKWIRPQSSE | – | binds

From article PMC7948738
